Laboratory results published in article PMC12131583.
These are yes or no findings as the source states them, for the method shown. In cells and extracts the contact can be indirect. These calls come from enrichment with a bait or labelling near it, and not all partners need be listed. Tags and fused reporters may be left off the sequences shown.

Chains of the proteins cited; added tags and fusions are not shown.
UniProt P17742: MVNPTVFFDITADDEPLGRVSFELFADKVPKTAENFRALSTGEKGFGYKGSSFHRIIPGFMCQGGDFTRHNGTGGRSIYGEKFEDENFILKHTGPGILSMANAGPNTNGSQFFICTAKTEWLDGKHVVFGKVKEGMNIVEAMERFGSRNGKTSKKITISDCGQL

Molecular target: T1, HA-tagged PARP3 (PARP3-HA) (human) (UniProt Q9Y6F1)
T1 sequence: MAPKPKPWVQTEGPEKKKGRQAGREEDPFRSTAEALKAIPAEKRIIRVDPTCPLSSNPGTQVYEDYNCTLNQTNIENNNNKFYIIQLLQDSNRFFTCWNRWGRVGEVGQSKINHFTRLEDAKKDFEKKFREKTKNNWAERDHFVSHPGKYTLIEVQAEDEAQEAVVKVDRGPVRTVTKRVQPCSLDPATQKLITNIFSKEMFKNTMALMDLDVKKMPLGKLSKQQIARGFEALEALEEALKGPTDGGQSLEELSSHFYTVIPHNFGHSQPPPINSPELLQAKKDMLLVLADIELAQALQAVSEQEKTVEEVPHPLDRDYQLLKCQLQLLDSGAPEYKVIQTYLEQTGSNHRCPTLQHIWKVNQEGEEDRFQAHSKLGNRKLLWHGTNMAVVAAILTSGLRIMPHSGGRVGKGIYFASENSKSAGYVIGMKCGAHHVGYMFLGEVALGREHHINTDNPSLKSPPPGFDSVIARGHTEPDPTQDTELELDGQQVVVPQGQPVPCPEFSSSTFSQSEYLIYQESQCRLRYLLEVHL
Assay: affinity purification with mass spectrometry; proteins interacting with HA-tagged PARP3 in RAW264.7 cells pulled down via co-immunoprecipitation and sequenced via mass spectrometry; intersected with mono-ADP-ribosylated proteins

## Peptidyl-prolyl cis-trans isomerase A (Ppia) (from UniProt P17742 1-164)
  binding: binds
